# Data taken from PMC7555312, “Functional Characterization of Temporin-SHe, a New Broad-Spectrum Antibacterial and Leishmanicidal Temporin-SH Paralog from the Sahara Frog (Pelophylax saharicus)” (International Journal of Molecular Sciences, 2020).
# Where two headings read alike, the source gives them in different places. Where no end group is shown, it is not given here.
substance,measurement,setting,value
FLPALAGIAGLLGKIF-NH2 [Temporin-SHe],effect on main transition peak of MLVs (DSC),peptide–lipid ratio 1:50,two-component main phase transition
same,effect on pretransition peak of MLVs (DSC),peptide–lipid ratio 1:50,abolished
same,effect on pretransition peak of MLVs (DSC),peptide–lipid ratio 1:100,abolished
same,effect on pretransition peak of MLVs (DSC),peptide–lipid ratio 1:200,reduced
